Results taken from PMC9512926.

How the values were obtained:
Assay in all cases: co-IP; FLAG-IP (anti-FLAG M2 affinity gel, 3 h, 4 °C) of lysates of transfected HEK293A cells; lysis buffer 50 mM Tris-HCl pH 7.4, 150 mM NaCl, 0.5% TritonX-100, 10% glycerol; Western blotting for DHX30; in one panel 10 μg/ml RNase A was added to the cleared lysates (interaction decreased)
[1] = target: TDP-43-FLAG mNLS/mRRM (C173S/C175S)
[2] = target: TDP-43-FLAG mNLS (R82L/K83Q)
[3] = target: TDP-43-FLAG WT (TAR DNA-binding protein 43)
TDP-43-FLAG Q331K = target: TDP-43-FLAG Q331K

binding [1]: no binding
binding [2]: no binding
binding [3]: no binding
binding (TDP-43-FLAG Q331K): no binding
B1: DHX30, ATP-dependent RNA helicase (endogenous, HEK293A) (protein, UniProt Q7L2E3 1-1194)
chain: MFSLDSFRKDRAQHRQRQCKLPPPRLPPMCVNPTPGGTISRASRDLLKEFPQPKNLLNSVIGRALGISHAKDKLVYVHTNGPKKKKVTLHIKWPKSVEVEGYGSKKIDAERQAAAAACQLFKGWGLLGPRNELFDAAKYRVLADRFGSPADSWWRPEPTMPPTSWRQLNPESIRPGGPGGLSRSLGREEEEDEEEELEEGTIDVTDFLSMTQQDSHAPLRDSRGSSFEMTDDDSAIRALTQFPLPKNLLAKVIQIATSSSTAKNLMQFHTVGTKTKLSTLTLLWPCPMTFVAKGRRKAEAENKAAALACKKLKSLGLVDRNNEPLTHAMYNLASLRELGETQRRPCTIQVPEPILRKIETFLNHYPVESSWIAPELRLQSDDILPLGKDSGPLSDPITGKPYVPLLEAEEVRLSQSLLELWRRRGPVWQEAPQLPVDPHRDTILNAIEQHPVVVISGDTGCGKTTRIPQLLLERYVTEGRGARCNVIITQPRRISAVSVAQRVSHELGPSLRRNVGFQVRLESKPPSRGGALLFCTVGILLRKLQSNPSLEGVSHVIVDEVHERDVNTDFLLILLKGLQRLNPALRLVLMSATGDNERFSRYFGGCPVIKVPGFMYPVKEHYLEDILAKLGKHQYLHRHRHHESEDECALDLDLVTDLVLHIDARGEPGGILCFLPGWQEIKGVQQRLQEALGMHESKYLILPVHSNIPMMDQKAIFQQPPVGVRKIVLATNIAETSITINDIVHVVDSGLHKEERYDLKTKVSCLETVWVSRANVIQRRGRAGRCQSGFAYHLFPRSRLEKMVPFQVPEILRTPLENLVLQAKIHMPEKTAVEFLSKAVDSPNIKAVDEAVILLQEIGVLDQREYLTTLGQRLAHISTDPRLAKAIVLAAIFRCLHPLLVVVSCLTRDPFSSSLQNRAEVDKVKALLSHDSGSDHLAFVRAVAGWEEVLRWQDRSSRENYLEENLLYAPSLRFIHGLIKQFSENIYEAFLVGKPSDCTLASAQCNEYSEEEELVKGVLMAGLYPNLIQVRQGKVTRQGKFKPNSVTYRTKSGNILLHKSTINREATRLRSRWLTYFMAVKSNGSVFVRDSSQVHPLAVLLLTDGDVHIRDDGRRATISLSDSDLLRLEGDSRTVRLLKELRRALGRMVERSLRSELAALPPSVQEEHGQLLALLAELLRGPCGSFDVRKTADD

These are yes or no findings as the source states them, for the method shown. In cells and extracts the contact can be indirect.
